In patent publication EP0791603A2, “Pure somatostatin antagonist and methods of use thereof” (American Cyanamid Company, priority 1996, dated 1997):
Part of at least one peptide drawing is inferred or uncertain, most often the ends. Positions of bridges follow the written chain, without caps; N, C: chain ends. Non-standard residues stand in square brackets, D forms with d. Residues, ends and D or L forms follow the SMILES beside them. Phe(4-NO2) = N[C@@H](Cc1ccc([N+](=O)[O-])cc1)C(=O)O; dPhe(4-NO2) = N[C@H](Cc1ccc([N+](=O)[O-])cc1)C(=O)O; 2Nal = N[C@@H](Cc1ccc2ccccc2c1)C(=O)O; NMeA = CN[C@@H](C)C(=O)O; Orn = NCCC[C@H](N)C(=O)O

Sequences of proteins named here, by UniProt entry; tags and fusion partners are left off. A change or cut given only in a name is not applied to a line headed by its entry.
UniProt P30680: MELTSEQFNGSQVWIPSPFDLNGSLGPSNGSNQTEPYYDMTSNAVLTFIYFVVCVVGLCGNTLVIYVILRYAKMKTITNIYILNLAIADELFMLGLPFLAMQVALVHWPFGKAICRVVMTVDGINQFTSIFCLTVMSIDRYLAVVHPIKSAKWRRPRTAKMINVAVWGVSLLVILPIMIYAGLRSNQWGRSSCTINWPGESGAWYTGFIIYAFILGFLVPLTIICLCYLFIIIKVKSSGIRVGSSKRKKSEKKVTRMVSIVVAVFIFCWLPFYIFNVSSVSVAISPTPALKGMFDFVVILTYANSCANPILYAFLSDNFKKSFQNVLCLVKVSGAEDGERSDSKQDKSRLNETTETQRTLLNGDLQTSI

How the values were obtained:
[1] = target: T1, rat somatostatin receptor subtype 2 (SSTR2) (Rattus norvegicus, UniProt P30680); experiment: Yeast assay, somatostatin agonist activity (growth zone of modified yeast cells on histidine-free agar); type: cell-based; conditions: rating on a scale of 1-5 from zone of growing cells; S. Cerevisiae LY364
T1 construct: expressed in transfected cells; host or cells: Saccharomyces cerevisiae LY364
Protocol: In this evaluation, yeast cells which have been specifically modified to functionally express rat somatostatin receptor subtype 2 (SSTR2) on their cell surfaces are used. S. Cerevisiae LY364 cells are plated in a standard synthetic agar medium which lacks histidine. In the absence of a somatostatin receptor agonist, the auxotrophic (his3) cells are unable to grow. In the presence of somatostatin, or a somatostatin agonist, the expression of an enzyme (His3p: imidazole-glycerol phosphate dehydratase) which is essential for histidine biosynthesis is induced. The cells become competent to produce histidine, resulting in a zone of growing cells around the applied test compound. The zone is measured and the test compound is given an agonist rating on a scale of 1-5 wherein 1 is minimum agonist activity and 5 is maximum agonist activity.
SCD-ura-trp: • 1) To 500 mL water add: • 1.7 g YNB without amino acids and (NH4)2SO4 • 5.0 g (NH4)2SO4 • 0.7 g CSM-ura-trp • 2) To additional 500 mL water add: 20 g Dextrose • 3) Autoclave separately. Mix.
SCL-ura-trp: • 1) To 500 mL water add: • 1.7 g YNB without amino acids and (NH4)2SO4 • 5.0 g (NH4)2SO4 • 0.7 g CSM-ura-trp • 2) To additional 500 mL water add: 30 mL Lactic Acid • 3) Autoclave separately. Mix.
SCG-ura-trp: • 1) To 500 mL water add: • 1.7 g YNB without amino acids and (NH4)2SO4 • 5.0 g (NH4)2SO4 • 0.7 g CSM-ura-trp • 2) To additional 500 mL water add: 30 g D-Galactose • 3) Autoclave separately. Mix.
SCG-ura-trp-his agar medium, pH 6.8: • 1) To 500 mL water add: • 1.7 g YNB without amino acids and (NH4)2SO4 • 5.0 g (NH4)2SO4 • 0.7 g CSM-ura-trp-his • Stirring Bar • 2) Adjust pH to 6.8-6.9 by dropwise addition of conc. NH4OH • 3) To additional 500 mL water add: 30 g D-Galactose, 20 g Agar • 4) Autoclave separately. • 5) Stir to mix thoroughly. • 6) Equilibrate temperature to 55°C. YNB without amino acids and (NH4)2SO4, CSM-ura-trp, and CSM-ura-trp-his are manufactured by Bio101. Ammonium sulfate ((NH4)2SO4), Dextrose (D-glucose), D-Galactose, and Lactic Acid are manufactured by Sigma.
(§1) • 1) Inoculate 2 mL SCD-ura-trp liquid medium in Falcon 2051 tube with a single colony taken from a plate containing LY364 (MATa ura3-52 leu2 his3 trp1 lys2 ade2 far1:: LYS2 fus1:: FUS1-HIS3 gpal::hisG sst2::ADE2 bearing the SSTR2 expression plasmid, pJH2, and the G protein expression plasmid, pLP82)cells. • 2) Incubate overnight in a roller drum at 30°C.
(§2) Day 2. • 1) Harvest the cells by centrifugation (3 krpm, 5 min, room temp). • 2) Re-suspend with 5 mL of sterile water. • 3) Harvest again by centrifugation. • 4) Re-suspend in 5 mL SCL-ura-trp liquid medium. • 5) Incubate for 6 hours in a roller drum at 30°C. • 6) Harvest the cells again by centrifugation. • 7) Re-suspend in 5 mL SCG-ura-trp liquid medium. • 8) Incubate overnight in a roller drum at 30°C.
(§3) Day 3. • 1) Autoclave SCG-ura-trp-his pH 6.8 agar medium. • 2) Cool to 55°C in water bath. • 3) Add 1 mL of LY364 culture to 1 liter of agar medium. • 4) Stir vigorously for 1 min. • 5) Pour 150 mL each into five 500 cm^2 plates. • 6) Allow to cool on level surface. • 7) Apply test compound.
(§4) On day 3, add 5µL 1 mg/mL S-14 to each plate. Day 5. Begin checking plates for growth around applied compounds. Day 7. Growth in response to somatostatin should be readily observable. Rate extent of growth or inhibition of growth according to rating scale described hereinabove.

[2] = target: T1, rat somatostatin receptor subtype 2 (SSTR2); experiment: Yeast assay, somatostatin antagonist activity (zone of no growth in presence of S-14); type: cell-based; design: key: 1 is minimum antagonist activity; 5 is maximum antagonist activity; -: When no activity is observed, the result is indicated by a dash; conditions: rating on a scale of 1-5 from zone of no growth; 5µL of 1 mg/mL S-14 added to each plate; S. Cerevisiae LY364
Protocol: To evaluate the somatostatin antagonist activity of a test compound, the above procedure is followed except on day 3, 5µL of 1 mg/mL of somatostatin, S-14, is added to each plate, before applying the test compound. If the test compound is an antagonist of somatostatin, then a zone of no growth will appear within the cell growth zone. This zone of no growth is measured and the test compound is given an antagonist rating on a scale of 1-5 wherein 1 is minimum antagonist activity and 5 is maximum antagonist activity.
The results are shown in Table I. When no activity is observed, the result is indicated by a dash.
as §1, §2, §3, §4

Row | Compound | Yeast Assay Agonist [1] | Yeast Assay Antagonist [2]
1 | NCCCC[C@@H]1NC(=O)[C@@H](Cc2c[nH]c3ccccc23)NC(=O)[C@H](Cc2ccc(O)cc2)NC(=O)[C@H](NC(=O)[C@@H](N)Cc2ccc([N+](=O)[O-])cc2)CSSC[C@@H](C(=O)N[C@@H](Cc2ccc3ccccc3c2)C(N)=O)NC(=O)[C@H](CO)NC1=O (H-[Phe(4-NO2)][dC]Y[dW]KSC[2Nal]-NH2; disulfide 2-7) | - | 3
2 | CC(C)[C@@H]1NC(=O)[C@H](CCCCN)NC(=O)[C@@H](Cc2c[nH]c3ccccc23)NC(=O)[C@H](Cc2ccc(O)cc2)NC(=O)[C@H](NC(=O)[C@@H](N)Cc2ccc([N+](=O)[O-])cc2)CSSC[C@@H](C(=O)N(C)[C@@H](C)C(N)=O)NC1=O [H-p-NO2Phe-D-Cys-Tyr-D-Trp-Lys-Val-Cys-N(CH3)Ala-NH2] (H-[Phe(4-NO2)][dC]Y[dW]KVC[NMeA]-NH2; disulfide 2-7) | - | 3
3 | CC(C)[C@@H]1NC(=O)[C@H](CCCN)NC(=O)[C@@H](Cc2c[nH]c3ccccc23)NC(=O)[C@H](Cc2ccc(O)cc2)NC(=O)[C@H](NC(=O)[C@@H](N)Cc2ccc([N+](=O)[O-])cc2)CSSC[C@@H](C(=O)N[C@@H](Cc2ccc(O)cc2)C(N)=O)NC1=O (H-[Phe(4-NO2)][dC]Y[dW][Orn]VCY-NH2; disulfide 2-7) | - | 1
4 | CC(C)[C@@H]1NC(=O)[C@H](CCCCN)NC(=O)[C@@H](Cc2c[nH]c3ccccc23)NC(=O)[C@H](Cc2ccc(O)cc2)NC(=O)[C@H](NC(=O)[C@H](N)Cc2ccc([N+](=O)[O-])cc2)CSSC[C@@H](C(=O)N[C@@H](Cc2ccc(O)cc2)C(N)=O)NC1=O (H-[dPhe(4-NO2)][dC]Y[dW]KVCY-NH2; disulfide 2-7) | - | 2
5 | C[C@@H](O)[C@@H]1NC(=O)[C@H](CCCCN)NC(=O)[C@@H](Cc2c[nH]c3ccccc23)NC(=O)[C@H](Cc2ccc(O)cc2)NC(=O)[C@H](NC(=O)[C@@H](N)Cc2ccc(I)cc2)CSSC[C@@H](C(=O)N[C@@H](Cc2ccc(O)cc2)C(N)=O)NC1=O | - | 5
